We go through 42 sequences from article PMC7819943, “Rice protein-binding microarrays: a tool to detect cis-acting elements near promoter regions in rice”.

This is one part of the list.

The assay concerns the target T1, OsSMF1 (Oryza sativa, UniProt Q6ZLB0 1-436).
T1 sequence: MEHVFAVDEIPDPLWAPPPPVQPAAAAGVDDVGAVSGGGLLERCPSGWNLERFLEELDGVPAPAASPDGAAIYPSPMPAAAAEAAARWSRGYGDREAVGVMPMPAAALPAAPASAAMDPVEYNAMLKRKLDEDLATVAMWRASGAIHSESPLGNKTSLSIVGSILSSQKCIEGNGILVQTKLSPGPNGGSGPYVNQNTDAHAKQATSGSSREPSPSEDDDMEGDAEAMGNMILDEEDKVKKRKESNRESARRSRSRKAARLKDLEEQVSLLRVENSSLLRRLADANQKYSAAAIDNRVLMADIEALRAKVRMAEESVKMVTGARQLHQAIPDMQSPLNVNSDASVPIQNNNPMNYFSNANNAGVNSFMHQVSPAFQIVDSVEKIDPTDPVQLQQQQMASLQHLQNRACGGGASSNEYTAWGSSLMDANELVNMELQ
As to the kind of experiment: protein-binding microarray (RPBM); PBS, 2% BSA, 51.3 ng/ul salmon testes DNA, 50 uM zinc acetate, 200 nM TF, 25 C, 1 h; high values mean tight binding. As to conditions: protein: recombinant; tags: N-terminal polyhistidine and DsRed monomer fusion (pET32a); chain copies: 2; label: CyDye5-dUTP incorporated in the synthesized complementary strand; 3' TTTTT single-stranded linker to array surface; dsDNA, one strand shown. In a few lines: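 Using Ni–NTA, transcription factors fused N-terminally to polyhistidine and DsRed were purified after expression in E. coli BL21-CodonPlus. These were incubated at 200 nM with a blocked, double-stranded custom Agilent array for 1 h at 25 °C in a buffer containing 50 µM zinc acetate, and the array was washed. The binding signal is per-feature fluorescence intensity (arbitrary units) on an Axon 4000B scanner.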
Turning to “GCATTGAACTATGCAGGCAGATATTTTCCAGCTCACGGCACGGAGTCACCTAGTGCAG”, the binding signal is 7100 fluorescence intensity (a.u.).

In the case of “AAAATAGAAAATGCTGACTAGGTTGCCACGCGTACGTCACCGGAGTCACCTAGTGCAG”, the binding signal is 15500 fluorescence intensity (a.u.).

As to “ATGTTCAAACCACTCAGCTGACTTGGTATGATCCCGGCAACGGAGTCACCTAGTGCAG”, the binding signal was 8020 fluorescence intensity (a.u.).

Regarding “TGCCATAGCTGATTACAGATTTACAGCCGGCTTTCATTCTCGGAGTCACCTAGTGCAG”, the binding signal was 4130 fluorescence intensity (a.u.).

Regarding “TTTATCCATATCTAAATCTACGCATTAATGAGTCATCCTACGGAGTCACCTAGTGCAG”, the binding signal was 8520 fluorescence intensity (a.u.).

In the case of “CCCACACTACGGTCAACATTGTACAATAATAGACGCCCAGCGGAGTCACCTAGTGCAG”, the binding signal was 3290 fluorescence intensity (a.u.).

On to “TCATGGTCATGACTCATGACTCATGTGGTCATCCAAAAGACGGAGTCACCTAGTGCAG”, for which the binding signal is 9770 fluorescence intensity (a.u.).

Consider “AATTGATTTCTCTATAGACAAATAGGGAATGCCAGATTGACGGAGTCACCTAGTGCAG”, for which the binding signal was 20100 fluorescence intensity (a.u.).

Take “AGAGCTCACAACTTACCCCGTCCGTGCGTACGTAGCAGCACGGAGTCACCTAGTGCAG”: the binding signal was 3690 fluorescence intensity (a.u.).

In the case of “ATGACATATAAGTCCACTGTAATTTTGGTATAAGTAAATACGGAGTCACCTAGTGCAG”, the binding signal is 3180 fluorescence intensity (a.u.).

“CATCTACGAAAATAGGCCTATGCAGGCGGCTGACTACCCGCGGAGTCACCTAGTGCAG”: the binding signal was 3850 fluorescence intensity (a.u.).

For the sequence “CAAGATAATCTTGCATTTGTGGCTTTGACACGACGACGATCGGAGTCACCTAGTGCAG”, the binding signal was 3830 fluorescence intensity (a.u.).

For “AGGTCATGTCATCTCTGGCAGGCCTAAACCCTTTCCTCTACGGAGTCACCTAGTGCAG”, the binding signal is 9830 fluorescence intensity (a.u.).

As for “CAGCGAGAGCGGTGTGGCCAAATAACGCTGCCACGTCAGTCGGAGTCACCTAGTGCAG”, the binding signal was 35900 fluorescence intensity (a.u.).

On to “GCGGCGGTGTCTCGCGCCGCCAGCCTACAAATGGGGAGAGCGGAGTCACCTAGTGCAG”, for which the binding signal was 40300 fluorescence intensity (a.u.).

Regarding “CATAAGCGCCACATCAACTCCACGTAGAACGAAAACCGAGCGGAGTCACCTAGTGCAG”, the binding signal was 9310 fluorescence intensity (a.u.).

Turning to “GCCTAGTGATGATGCAGAGGGGATTCCCGCTTTAAGTATGCGGAGTCACCTAGTGCAG”, the binding signal was 7970 fluorescence intensity (a.u.).

Consider “TCATCTCGTTTTGTCACGTGCGTGCACATGACGCGATAGCCGGAGTCACCTAGTGCAG”, for which the binding signal is 7110 fluorescence intensity (a.u.).

For the sequence “GTTTCCGATCCACCCGTCCAATTAAATCATGCTTAGTGGCCGGAGTCACCTAGTGCAG”, the binding signal was 3320 fluorescence intensity (a.u.).

With “CCATCACTACAACATGTCATCATCCGATGTCTCCGGCAGTCGGAGTCACCTAGTGCAG”, the binding signal was 5740 fluorescence intensity (a.u.).

As for “ACGGACAGTCAAACGTTAGACACGGAAACCAAGGTTTGTCCGGAGTCACCTAGTGCAG”, the binding signal was 30500 fluorescence intensity (a.u.).

In the case of “AGGGGTTTGGTTGGTGAGCGACGGAGTCTGCGCGGTGGGACGGAGTCACCTAGTGCAG”, the binding signal was 21500 fluorescence intensity (a.u.).

Regarding “ACCTTTTCTTCAATCATACTTCACATAATGACCCGCAGCACGGAGTCACCTAGTGCAG”, the binding signal was 3650 fluorescence intensity (a.u.).

For “CCCGTCTCGCCCGCAGTCACGGATCGAGGAGGCCTCGGCTCGGAGTCACCTAGTGCAG”, the binding signal was 3760 fluorescence intensity (a.u.).

Regarding “AGAGAAGAGGAGAAAGAGGGAAGGTGATGATGTGGCTTCCCGGAGTCACCTAGTGCAG”, the binding signal is 14100 fluorescence intensity (a.u.).

Regarding “AATCCACTGTTGTGTTTGTTTGGTGGCATGCATATGTAGACGGAGTCACCTAGTGCAG”, the binding signal is 3160 fluorescence intensity (a.u.).

In the case of “ATCTGTTATGTTTGCCCTGTCATTGGTTCTGCTAATCAATCGGAGTCACCTAGTGCAG”, the binding signal is 3190 fluorescence intensity (a.u.).

On to “CAACAATCGTGTGCTGTGCTGACGACAGCCATGGGCCACACGGAGTCACCTAGTGCAG”, for which the binding signal was 7140 fluorescence intensity (a.u.).

Turning to “ATGAATAATTCTTGATGACAACTATTATTGTTGTGGATTTCGGAGTCACCTAGTGCAG”, the binding signal is 3880 fluorescence intensity (a.u.).

In the case of “GTCTAAAGCTGCGTTTGACCGTGATTTTGCCTACGTGGCACGGAGTCACCTAGTGCAG”, the binding signal is 20800 fluorescence intensity (a.u.).

Regarding “CGCTTTAAGTGGGAATTAAACAATTGGGCACCAACCAAGACGGAGTCACCTAGTGCAG”, the binding signal was 23400 fluorescence intensity (a.u.).

In the case of “ACTGGTTCCATTCCTCCTCGTCATCTCCAGCTCGCGGCGGCGGAGTCACCTAGTGCAG”, the binding signal is 7580 fluorescence intensity (a.u.).

Take “CCCATTGCTGTCTCTACCATGTGTCATCTTCCAATAAGCACGGAGTCACCTAGTGCAG”: the binding signal was 4950 fluorescence intensity (a.u.).

Regarding “TCTGCTGTATGCGAGGATGACTTAGCGTGCTCACGTGGCACGGAGTCACCTAGTGCAG”, the binding signal was 18000 fluorescence intensity (a.u.).

On to “CCGCGCCCTTGCAGGAAGATGTGTCAGCTGCAGATTTGGGCGGAGTCACCTAGTGCAG”, for which the binding signal was 6110 fluorescence intensity (a.u.).

Regarding “GACTAAAACTATAACACCTTTTCAAATAAACACGTGTGCACGGAGTCACCTAGTGCAG”, the binding signal is 7990 fluorescence intensity (a.u.).

Consider “CCTCCTCGCTGCCCAGCCACCGCCGCCCTCCCGTCCCGCGCGGAGTCACCTAGTGCAG”, for which the binding signal is 3490 fluorescence intensity (a.u.).

“TCGAGTAAGGTTCCTTGTCGCCGTTGATGACGGCAGCCTCCGGAGTCACCTAGTGCAG”: the binding signal was 3750 fluorescence intensity (a.u.).

As for “CAGTATAATACTATAATCCTCCACGTTTGCGGCTCACGTGCGGAGTCACCTAGTGCAG”, the binding signal was 5490 fluorescence intensity (a.u.).

On to “CACGGGTGCCCGCGTCATCCCGTCCCCTCGAGCGTCGCCCCGGAGTCACCTAGTGCAG”, for which the binding signal is 6980 fluorescence intensity (a.u.).

As for “ATTTCCGTTTCTAAATTGACACATCGGCTACTCACTTATGCGGAGTCACCTAGTGCAG”, the binding signal was 6380 fluorescence intensity (a.u.).

In the case of “TCTTCAGGAGTCAGGACTAGCAAATGGTAAAGCAGCAATTCGGAGTCACCTAGTGCAG”, the binding signal was 22900 fluorescence intensity (a.u.).
